# Test results published in PubChem BioAssay AID1347423 (Functional Genomics Laboratory (NCATS/FGL), 2020).
# Among all 52,000 sequences or so, about 210 (0.4%) were called active.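 Rule for the calls: active = gene whose silencing raises cell survival under the drug, median off-target-corrected z-score across its silencing RNAs 2 or more; inactive = the rest.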 The list shows a part of the results.
# Experiment: Resistance to Poly (ADP-Ribose) Polymerase inhibitor: Gene Identification via Genome-wide siRNA Screen
# Conditions: mouse BRCA2 R2336H ES cells, olaparib, CellTiter-Glo viability; active compounds read high
# How it was run: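 Mouse BRCA2 R2336H ES cells were reverse-transfected with siRNA (20 nM final), treated at 48 h with 500 nM olaparib, and read by CellTiter-Glo after 72 h. Scores: MAD-based z per siRNA, median per gene, seed off-target correction.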
row,Sequence,z-score
1,UACGGGCUGAACAUGUGCCTT against Rps29,inactive: -1.27
2,GGUUGCAUUUUUGGAUUUATT against Fbxw2,inactive: 1.37
3,CCAAUUGAGAAUAAACUCATT against Gnrhr,inactive: 0.297
4,GCUCUACCCAAUCAAGACCTT against Asb14,inactive: 0.715
5,GCACAAAUCUGGUAAGUCATT against Gtf2h1,inactive: -2.5
6,GGAAAAAAUGGAAAACUGGTT against Rpo1-2,inactive: 0.324
7,GGGAAGCUAUCUGAAUGCGTT against Otoa,inactive: 0.816
8,CCAUUACAUCAGCUUUAUUTT against E430002G05Rik,inactive: 0.728
9,GGACAUUGAGGACUAUGACTT against Grk1,inactive: -1.18
10,GGAUACAAUCCUUUUGGAUTT against Dnajb1,inactive: 0.674
11,GAGUGUCCGAUAGACCGUUTT against Rbm4,inactive: 1.85
12,CCUUCACAUAAGUUUCUGUTT against 1200013B22Rik,inactive: -0.482
13,GCUUUUCCUACCGUAAGCCTT against BC025546,inactive: -1.84
14,GCCACUCAAUAAUCGCUGUTT against Car10,inactive: 0.317
15,CGGUACUUAGACUGCAUCATT against Agxt2l1,inactive: 1.32
16,CCAGAUAAUAAUUUGGAUGTT against Dhx9,inactive: 0.107
17,GCAGUGAAUGAACCGCUGUTT against Cd59a,inactive: 1.27
18,GGAAGGUGAUGCACUAUUATT against D230016N13Rik,inactive: -1.78
19,GUGUUCAGCACCCUGGCAATT against Klra3,inactive: -0.431
20,GGCUCCUGUACCACCAAAATT against Wnt7b,inactive: -2.33
21,GGGAAAAGAUCGACAAAGATT against Plk2,inactive: -0.123
22,GGAAACAGUAGAAGAUGAGTT against 2810453I06Rik,inactive: 0.994
23,CCUGAAGAUGAAUUAUUGCTT against Plg,inactive: 2.39
24,GGGCAGAGGCAUUUCUGUATT against Psg23,inactive: 0.868
25,GGUCUCUGAAGACAAAAAATT against Sema4d,inactive: -0.0806
26,GGCAAUAGCUUUACCUAUGTT against Lzts2,inactive: -0.436

row,Sequence,z-score
1,GGUGUAGACUCCAACAUGUTT against 2310044P18Rik,inactive: -0.688
2,GUGAAAUCUAUGGAGAAUGTT against 1200003C05Rik,inactive: 0.0036
3,GGUCAGCUAUCUAAUGAUUTT against 2310056P07Rik,inactive: -0.459
4,CCCACCUUUGUCAACCAAATT against Pcdhga10,inactive: -0.536
5,CCAUAUGGAGUUCUCUAUATT against Bxdc1,inactive: -0.158
6,CCUAGAGAACUCUACCUGCTT against 2400008B06Rik,inactive: 0.213
7,GAGUGAGAAAGCCAGAGACTT against Acaa1,inactive: -0.208
8,GCCUCUAAGAAUUCAGGAATT against Fxc1,inactive: 0.704
9,GUGAGCAGUGCUUUGAUCUTT against Tff2,inactive: 0.459
10,GGCAGAAGAAGUAUUCUAUTT against Sgk,inactive: 0.208
11,CCAAGUUGGCUUUAAUUGCTT against Abcb4,inactive: 1.98
12,GGAUUUUUAGUGUUUGACATT against Rab39,inactive: -0.583
13,GCUUCUACGGCAAAUGAAUTT against Cdr2,inactive: 1.68
14,GCCAACUACGUAUAUACAUTT against 4921511C20Rik,inactive: 0.266
15,GGACUUGAUCAACUCUAUCTT against Supt3h,inactive: 1.54
16,GCAAGCUUAGUGAAACUCUTT against 4632417N05Rik,inactive: -0.877
17,GGAAGAAUUAAACGAUUACTT against Crnkl1,inactive: -0.11
18,GCCGCUCUACAUAGAAGUUTT against Uxs1,inactive: 0.314
19,GGAUGACACCAAGUUCAAATT against Kcnb1,inactive: -0.0516
20,GCAACUACCCAAGUGGAAGTT against 2410004F06Rik,inactive: 1.83
21,GCUGGUGUCGGCAAAUCCUTT against Prkwnk1,inactive: -0.224
22,GGAAAAUGAUAGCAGACAUTT against BC005471,inactive: -1.83
23,GCAACCUUGACGUAAAUGUTT against Bsg,inactive: -0.876
24,GCAUAGAAACCAUGCACAUTT against Mte1,inactive: 1.28
25,CCUCAAUGACCUUAAAGAATT against Sh3glb1,inactive: 0.443
26,GCCGUGAUGUUGUCACUGATT against Ppp2r5d,inactive: -0.706

row,Sequence,z-score
1,GGUCUUUGAGUUAAACCAUTT against Cdc7,inactive: -1.75
2,GCCUCCUCAUAAUCCACAATT against Klk11,inactive: 0.924
3,CCAUCGUUGUUUCUUACACTT against Olfr922,inactive: 0.837
4,GCAGGUCAAUGGACUUAUGTT against Tal1,inactive: -1.66
5,GCCAAGGUGGAAUUUUUGGTT against 2310016C16Rik,inactive: 0.667
6,GGAAGAGCAUAAAAUGUCATT against Trps1,inactive: 0.0255
7,GGACUUUGUUCUGGAAUCGTT against 2410017I18Rik,inactive: -0.679
8,GGUUCAGUCAAGAAUUGCUTT against Clecsf9,inactive: -1.81
9,CGGCUUGCUACUUUGGAACTT against Gda,inactive: -0.346
10,GGUGAUCAAACUUUACUCATT against Gfra2,inactive: 0.373
11,GCAUAUUAUACCAAGGCCUTT against Tex11,inactive: 0.0477
12,GGAUCCAGACACCUCAAGATT against 3110035E14Rik,inactive: -0.63
13,GGUCUCUCUGGAAAUAUAATT against Gria2,inactive: -1.26
14,GGGAGUUCAAGCCAGUUAUTT against D11Ertd18e,inactive: -0.335
15,GGUGUCUUCAAGAGUCAUUTT against D3Ucla1,inactive: -1.53
16,CGAUGUGAUGAUUUAGAAGTT against Itgb1,inactive: 0.222
17,GGUAAAAUUGUCCAAGGAATT against Dcl1,inactive: 0.562
18,GGUCGUGCGAUCCACAGAUTT against Ltap,inactive: 0.191
19,GCGACACAGUAUGCUUAAGTT against Zfp403,inactive: -0.417
20,GGUGCAUGACCUGACAAAGTT against BC032204,inactive: 1.28
21,CGGACUAAGUUUCAAAUCGTT against Pcdha2,inactive: -0.594
22,AGAGGCUGGUAAGAAAAAATT against Olfr130,inactive: 0.318
23,GGACUUGCUUUGGACACAUTT against Cd164l1,inactive: -0.611
24,CCAAUCAUGGACUUUAUAATT against 4921522K05Rik,inactive: -1.01
25,CCAAUGUGGUCAAGGUAAUTT against AI987944,inactive: 1.6
26,GGUGGGAUGAUCAUAAGUUTT against Ppnr,inactive: -0.289

# Another view of some results above:
row | Sequence | z-score
23 | GCAACCUUGACGUAAAUGUTT against Bsg | inactive: -0.876
24 | GCAUAGAAACCAUGCACAUTT against Mte1 | inactive: 1.28
25 | CCUCAAUGACCUUAAAGAATT against Sh3glb1 | inactive: 0.443
26 | GCCGUGAUGUUGUCACUGATT against Ppp2r5d | inactive: -0.706
1 | GGUCUUUGAGUUAAACCAUTT against Cdc7 | inactive: -1.75
2 | GCCUCCUCAUAAUCCACAATT against Klk11 | inactive: 0.924
3 | CCAUCGUUGUUUCUUACACTT against Olfr922 | inactive: 0.837
4 | GCAGGUCAAUGGACUUAUGTT against Tal1 | inactive: -1.66
5 | GCCAAGGUGGAAUUUUUGGTT against 2310016C16Rik | inactive: 0.667
6 | GGAAGAGCAUAAAAUGUCATT against Trps1 | inactive: 0.0255
7 | GGACUUUGUUCUGGAAUCGTT against 2410017I18Rik | inactive: -0.679
8 | GGUUCAGUCAAGAAUUGCUTT against Clecsf9 | inactive: -1.81
9 | CGGCUUGCUACUUUGGAACTT against Gda | inactive: -0.346
10 | GGUGAUCAAACUUUACUCATT against Gfra2 | inactive: 0.373
11 | GCAUAUUAUACCAAGGCCUTT against Tex11 | inactive: 0.0477
12 | GGAUCCAGACACCUCAAGATT against 3110035E14Rik | inactive: -0.63
13 | GGUCUCUCUGGAAAUAUAATT against Gria2 | inactive: -1.26
14 | GGGAGUUCAAGCCAGUUAUTT against D11Ertd18e | inactive: -0.335
15 | GGUGUCUUCAAGAGUCAUUTT against D3Ucla1 | inactive: -1.53
16 | CGAUGUGAUGAUUUAGAAGTT against Itgb1 | inactive: 0.222
17 | GGUAAAAUUGUCCAAGGAATT against Dcl1 | inactive: 0.562
18 | GGUCGUGCGAUCCACAGAUTT against Ltap | inactive: 0.191
19 | GCGACACAGUAUGCUUAAGTT against Zfp403 | inactive: -0.417
20 | GGUGCAUGACCUGACAAAGTT against BC032204 | inactive: 1.28
21 | CGGACUAAGUUUCAAAUCGTT against Pcdha2 | inactive: -0.594
22 | AGAGGCUGGUAAGAAAAAATT against Olfr130 | inactive: 0.318
23 | GGACUUGCUUUGGACACAUTT against Cd164l1 | inactive: -0.611
24 | CCAAUCAUGGACUUUAUAATT against 4921522K05Rik | inactive: -1.01
25 | CCAAUGUGGUCAAGGUAAUTT against AI987944 | inactive: 1.6
26 | GGUGGGAUGAUCAUAAGUUTT against Ppnr | inactive: -0.289

# Remaining list, next part.

row,Sequence,z-score
1,GCAGCAGGAAGGAUCAUUCTT against Ly6h,inactive: -0.805
2,GGUCAAGCAGCUGACCCAATT against A930017N06Rik,inactive: 0.622
3,GCGUGUGAGUGUGAAGGAATT against Gpr81,inactive: -1.53
4,CCUCUUUCGACAAGAGCUCTT against Atp1a3,inactive: -0.132
5,GGAUCUCAAAGAUACAGGATT against Mcpt1,inactive: 1.22
6,GGCAAGAGAUCAUAAACUGTT against C230078M08Rik,inactive: -1.91
7,CGACAUCAGUUAAAAACGATT against Aebp2,inactive: 0.5
8,GCACAUAUAAAGUUGGAAATT against Ehbp1,inactive: -0.377
9,CGUGGAAGCUGUGUUAUCUTT against 2010004A03Rik,inactive: 0.726
10,GCAAGAUCCGUACAUAGCATT against 8430408H12Rik,inactive: 2.75
11,GGGAUAUCGUUUGGUAUAGTT against Saa4,inactive: -2.57
12,GCUAAGCUAGAACAUGAAUTT against Mapre1,inactive: 2.23
13,GGAACUGCCCAGUUCUUAATT against Ppan,inactive: -1.52
14,GCUCGUUGUCUAGUUUGGGTT against Ube4b,inactive: 0.186
15,GGUGCUCAUUUUAUUGAGATT against A530016O06Rik,inactive: 1.07
16,CCCUAAGUAUAGGAUCGGATT against H2afy,inactive: 3.21
17,GCAGAUUGGCGAUACCCUGTT against Alcam,inactive: -1.32
18,GCUCCACUUUGGAGUUGGATT against Trub2,inactive: -2.13
19,GGGCCAAUAAAGAGGACAGTT against Aanat,inactive: -1.54
20,GGUUCAAUAUGAAGUUGUUTT against 1700012F17Rik,inactive: -1.52
21,CCGUGAGAGUUUGGUGGUATT against Mcm2,inactive: -2.3
22,GCCUGAAUUUGUAAGCAGUTT against Fgf1,inactive: 0.159
23,GCAAGAUUGGAAUGCUCCATT against 3830403N18Rik,inactive: -2.35
24,GCAUGCAAUGUUUUUCGUATT against 4932701A20Rik,inactive: 0.624
25,GGGCAAGUUUCAUGGAAAUTT against Stat4,inactive: 0.749
26,GGAAUAAGUCGGGCUAUCUTT against Dffb,inactive: -0.744
